Source: publication PMC8430998
Residue numbers refer to the chain shown, from its start. No constants are given. Whether binding was seen depends on the method and setting. In cells and extracts the contact can be indirect. A result given as binding can be weak or reduced; the word gives no strength. Tags and fused reporters may be left off the sequences shown.

What was measured:
[1] = biological target: T1, CSHQ-NRDP1-FLAG (UniProt Q9H4P4); assay: co-IP; cells (LNCaP by the text, PC-3 by the legend) co-transfected with AR constructs and FLAG-tagged NRDP1-CSHQ (3 μg per 100 mm dish, 72 h); FLAG immunoprecipitation, western blot for AR
T1 sequence: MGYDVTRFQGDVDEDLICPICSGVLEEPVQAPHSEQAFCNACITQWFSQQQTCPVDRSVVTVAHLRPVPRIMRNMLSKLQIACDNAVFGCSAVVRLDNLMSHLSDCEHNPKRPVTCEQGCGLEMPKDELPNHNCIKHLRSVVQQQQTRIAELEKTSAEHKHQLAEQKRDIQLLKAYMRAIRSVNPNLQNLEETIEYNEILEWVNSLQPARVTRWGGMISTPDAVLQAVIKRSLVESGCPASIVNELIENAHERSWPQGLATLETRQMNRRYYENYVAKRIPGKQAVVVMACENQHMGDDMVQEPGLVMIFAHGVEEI

[2] = biological target: T1, CSHQ-NRDP1-FLAG; assay: co-IP; LNCaP cells transfected with FLAG-tagged NRDP1 constructs (3 μg per 100 mm dish, 72 h); FLAG immunoprecipitation from IP lysis buffer lysate, protein A agarose, western blot for endogenous AR
[3] = biological target: T2, Wt-NRDP1-FLAG (UniProt Q9H4P4); assay: as above
T2 sequence: T1 sequence with S34C, Q36H

binding [1]	binding [2]	binding [3]	Substance
no binding			AR w/o (missing residues 628–646 of the hinge domain) (receptor)
binds			AR-ΔDBD (missing residues 538–614 of the DNA binding domain) (receptor)
	binds	binds	Androgen receptor (endogenous in LNCaP cells, mutant AR T877A) (human (endogenous in LNCaP))
binds			Wt-AR (receptor)
no binding			pEL 77 AR (missing residues 647–670 of the hinge domain) (receptor)
